# Assay: ROS generation on exposure to low intensity ultrasound, DPBF probe
# Type: physicochemical
# Conditions: 0.5 μM drug, 20 μM DPBF, EtOH:H2O 50:50, ultrasound 30 min, 1 MHz, 3.0 W/cm^2, 50% duty cycle; relative to controls
# Description: The ability of the Rose Bengal-C(KLAKLAK)2 (SEQ ID NO. 2) conjugate to generate reactive oxygen species (ROS) upon exposure to low intensity ultrasound was determined using the chromogenic ROS probe 1,3-diphenylisobenzofuran (DPBF). DPBF has an intense absorbance band centred at 410 nm in its native furan form but is readily bleached by ROS to the corresponding di-ketone. This conversion to the di-ketone is accompanied by a loss in absorbance at 410 nm that can be used to determine the amount of ROS produced. An EtOH:H2O (50:50 v/v) (10 mL) solution was prepared containing Rose Bengal or Rose Bengal-C(KLAKLAK)2 (SEQ ID NO. 2) (0.5 μM) and 1,3-diphenylisobenzofuran (DPBF) (20 μM). The solutions were then irradiated for 30 min with ultrasound using a sonoporator (Sonidel SP 100 sonoporator; frequency 1 MHz, power density 3.0 W/cm^2, 50% duty cycle, pulse repetition frequency 100 Hz). Aliquots were taken every 5 minutes and the absorbance at 410 nm was recorded using a ultraviolet-visible spectrometer (Cary 50 ultraviolet-visible (UV-Vis) spectrometer). Control experiments in the absence of drug (i.e. DPBF+stimulus) were also performed for comparative purposes (n=3).
compound,measurement,value
"O=C1OC2(c3cc(I)c(O)c(I)c3Oc3c2cc(I)c(O)c3I)c2c(Cl)c(Cl)c(Cl)c(Cl)c21 [Rose Bengal, 4,5,6,7-tetrachloro-2′,4′,5′,7′-tetraiodofluorescein]",DPBF absorbance at 410 nm (ROS production),significant reduction in DPBF absorbance

# Reference: US11712473B2, “Sensitizer-peptide conjugate” (UNIVERSITY OF ULSTER, priority 2017, dated 2023)
